Patent US7253211B2, “(R)-chiral halogenated substituted fused heterocyclic amino compounds useful for inhibiting cholesterol ester transfer protein activity” (Pfizer Inc., priority 1999, dated 2007)

Sequences of proteins named here, by UniProt entry; tags and fusion partners are left off. Residues count along the entry.
UniProt P11597, 18-493 limits assumed: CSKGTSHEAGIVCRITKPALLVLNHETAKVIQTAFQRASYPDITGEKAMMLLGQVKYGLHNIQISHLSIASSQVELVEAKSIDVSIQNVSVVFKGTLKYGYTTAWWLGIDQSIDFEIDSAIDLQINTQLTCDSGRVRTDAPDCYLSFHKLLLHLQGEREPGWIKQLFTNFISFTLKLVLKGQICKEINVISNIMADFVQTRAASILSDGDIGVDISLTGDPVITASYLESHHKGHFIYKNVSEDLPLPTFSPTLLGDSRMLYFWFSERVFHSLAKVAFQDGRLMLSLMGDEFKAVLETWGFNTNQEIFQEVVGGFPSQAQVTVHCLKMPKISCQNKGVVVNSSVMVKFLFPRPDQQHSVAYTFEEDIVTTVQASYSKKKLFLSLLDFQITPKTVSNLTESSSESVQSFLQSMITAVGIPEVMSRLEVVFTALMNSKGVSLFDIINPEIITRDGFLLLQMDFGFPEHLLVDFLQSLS

Molecular target: CETP (Homo sapiens, UniProt P11597)
Test: Assay of CETP Inhibition Using Purified Components (Reconstituted Buffer Assay)
Type: biochemical

In the case of O[C@H](CN(Cc1cccc(OC(F)(F)F)c1)c1cccc(OCc2cc(F)cc(F)c2)c1)C(F)(F)F, the IC50 is reported as 0.86 µM.

The match of structure and compound is tentative.
